According to PubChem BioAssay AID504648 (National Center for Advancing Translational Sciences (NCATS), 2011):
In all, about 390,000 compounds went through this assay and about 610 (0.16%) were called active. Inconclusive results, whose numbers are uncertain, are shown with a selection of clear calls. Calls follow the shape of the dose curve; as a rule, active = well fitted inhibition curve with a large enough effect; inconclusive = small, poorly fitted or top-dose-only effect, or effect the other way, or another doubt; inactive = no such curve, though single readings can be large or run the other way. Potencies beside an inconclusive call are fits to weak or partial responses and may not hold up.

Assay: Nrf2 qHTS screen for inhibitors: counterscreen for cytotoxicity
Conditions: A549 ARE-Fluc cells, CellTiter-Fluor viability, 18-24 h; series mostly up to 46 µM
Procedure, shortened: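 A549 ARE_Fluc cells in 5% FBS OPTI-MEM were exposed to compounds in concentration-response for 18-24 h at 37 deg C. Viability was read by CellTiter-Fluor fluorescence (Ex 405/Em 525) after 30 min, before the luciferase read.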
Potency is read from the fitted curve at half-maximal effect.

| SMILES | Potency |
| --- | --- |
| COC(=O)C1=C(C)N(Cc2ccccc2)C(=NCCc2c[nH]c3ccccc23)N[C@H]1c1ccccc1 | inactive |
| N#CC(C#N)=C1C=CC=CN1/C(=C\c1ccco1)C(=O)c1ccc(Br)cc1 | inconclusive: 25.9 µM [falling, single point] |
| COc1ccccc1C1c2[nH]c3ccccc3c2C[C@H]2C(=O)N(C3CCN(Cc4ccccc4)CC3)CC(=O)N12 (some centres not stated) | inconclusive: 20.6 µM [falling, single point] |
| O=C(c1ccc(F)cc1)N1CCOCC1 | inactive |
| Cc1cccc(-n2c(N)c(C(=O)NCCN3CCOCC3)c3nc4ccccc4nc32)c1 | inconclusive: 16.4 µM [activator, partial curve, poor fit] |
| COC(=O)[C@@]1(C)[C@H]2C(=O)N(Cc3ccccc3)C(=O)[C@H]2[C@H]2CN=C(SCc3ccc(C)cc3)N21 | inactive |
| CCOCCCNC(=O)C1CCN(C(=O)N(C)C)CC1 | inconclusive: 32.6 µM [activator, partial curve, poor fit] |
| COc1ccc(-c2nc3ccc(C)cn3c2NCc2ccccc2)cc1SC1CCCCC1 | inconclusive: 18.4 µM [falling, partial curve, poor fit] |
| CCN1c2ccccc2-c2nc(SCC(=O)Nc3c(C)cc(C)cc3C)ncc2S1(=O)=O | inconclusive: 9.2 µM [falling, partial curve, poor fit] |
| Cc1cccc(C)c1OCc1cc(C(=O)N(C)Cc2cc(C3CC3)n[nH]2)no1 | inconclusive: 29.1 µM [falling, single point] |
| O=C(O)c1cc(O)c2c(c1)C(=O)c1cccc(O)c1C2=O | inconclusive: 8.2 µM [falling, partial curve, poor fit] |
| Cc1nn(C2CCS(=O)(=O)C2)c(Cl)c1/C=C/C(=O)OCC(=O)c1c[nH]c2ccccc12 (configuration not stated) | inconclusive: 20.6 µM [activator, single point] |
| CC(C)C(=O)Nc1cccc(NC(=S)NC(=O)c2ccc(Cl)cc2)c1 | inconclusive: 23.1 µM [falling, partial curve, poor fit] |
| COc1ccc(-c2nc(-c3ccc(NC(=O)c4ccncc4)cc3)no2)cc1OC | inactive |
| Cc1ccccc1NC(=O)Cn1nnc(C(=O)NCc2cccs2)c1N | inactive |
| Cc1ccc(-c2c3c(nc4sc(C(N)=O)c(N)c24)CCCC3)o1 | inconclusive: 0.517 µM [activator, full curve, poor fit] |
| COc1cc(NC(=O)c2cc(S(=O)(=O)N3CCC(C)CC3)cn2C)cc(OC)c1OC | inactive |
| O=c1cc(N2CCCCC2)c(-c2ccccc2)nn1Cc1ccccc1Cl | inconclusive: 6.51 µM [falling, partial curve, poor fit] |
| O=C(Cn1cnc2c(nnn2Cc2ccccc2)c1=O)c1ccc(Cl)cc1 | inconclusive: 6.51 µM [activator, partial curve, poor fit] |
| O=C(/C=C/c1ccc(Cl)cc1Cl)N(Cc1ccc(Cl)cc1)C1CCS(=O)(=O)C1 (configuration not stated) | inconclusive: 20.6 µM [falling, single point] |
| COc1cc(O)ccc1-c1nc2cc(C)ccn2c1Nc1ccccc1C | inactive |

| SMILES | Potency |
| --- | --- |
| CC(C)C[C@H](NC(=O)c1[nH]cnc1C(=O)N[C@@H](C)C(=O)OC(C)(C)C)C(=O)OC(C)(C)C | inconclusive: 32.6 µM [falling, partial curve, poor fit] |
| CCOC(=O)c1ccc(NC(=O)c2nc[nH]c2C(=O)N[C@H](C)c2ccccc2)cc1 | inconclusive: 20.6 µM [falling, single point] |
| CCOC(=O)CC(C)(C)/C(C)=N/Nc1ccc([N+](=O)[O-])cc1[N+](=O)[O-] | inconclusive: 16.4 µM [falling, single point] |
| Cc1[nH]nc2nc(SCC(=O)NC3CCCCC3)n(-c3ccc(Br)cc3)c(=N)c12 | inconclusive: 29.1 µM [falling, single point] |
| CC(=O)c1sc(=S)n(-c2ccccc2)c1C | inactive |
| O=S(=O)(Cc1cc(Sc2ccc(Cl)cc2)nc(-c2ccccc2)n1)c1ccccc1 | inconclusive: 20.6 µM [falling, single point] |
| CN(C)NC(=S)Nc1cccc(Cl)c1 | inactive |
| CCCC(C)c1nc(C(N)=O)c2[nH]c(=O)n(-c3ccc(OC)cc3OC)c2n1 (configuration not stated) | inconclusive: 20.6 µM [falling, partial curve, poor fit] |
| CC1(C)CC(=O)C2=C(C1)c1c(ccc3ccccc13)NC2c1cc([N+](=O)[O-])cc([N+](=O)[O-])c1O (configuration not stated) | inconclusive: 23.1 µM [falling, partial curve, poor fit] |
| CN(C)/[N+]([O-])=N/Oc1cc(O/[N+]([O-])=N/N2CCCC2CO)c([N+](=O)[O-])cc1[N+](=O)[O-] (configuration not stated) | inconclusive: 29.1 µM [falling, single point] |
| Cc1c(C(=O)NC2CCOC2)oc2c(F)cccc12 (configuration not stated) | inconclusive: 32.6 µM [falling, partial curve, poor fit] |
| COc1cc(/C=N/NC(=O)c2ccc(C)nc2)cc([N+](=O)[O-])c1O | inconclusive: 16.4 µM [falling, single point] |
| Cc1cc(NC(=O)COC(=O)C2CC(=O)N(c3cccc(Cl)c3)C2)no1 (configuration not stated) | inactive |
| COc1ccc(CCNC(=O)C2CCN(C(=O)c3ccc(C(C)(C)C)cc3)CC2)cc1OC | inactive |
| O=C(c1cccs1)N1CCC(c2nc3c(nnn3Cc3ccccc3Cl)c(=O)[nH]2)CC1 | inconclusive: 32.6 µM [falling, partial curve, poor fit] |
| [N-]=C=C1C(=S)NC(=O)[C@H]([n+]2ccccc2)[C@H]1c1ccc(Cl)cc1 | inactive |
| CCOc1ccc(CCNC(=O)Cn2ccc3cc(S(=O)(=O)N4CCCC4)ccc32)cc1 | inactive |
| COc1ccc(C)cc1NC(=O)c1c(C(=O)Nc2cccc(C)c2C)sc2nc(C)cc(=O)n12 | inactive |
| O=c1oc2c(CN3CCCCC3)c(O)ccc2cc1-c1nc2ccccc2[nH]1 | inconclusive: 20.6 µM [activator, partial curve] |
| CCCN(CC(=O)Nc1ccc(F)c(F)c1F)C(=O)Cc1ccc(S(=O)(=O)N2CCOCC2)s1 | inconclusive: 1.03 µM [activator, full curve, poor fit] |
| COC(=O)c1cc2ccccc2n1Cc1ccc(Cl)nc1 | inconclusive: 23.1 µM [activator, partial curve, poor fit] |

Some of the entries above in a different format:
CN(C)NC(=S)Nc1cccc(Cl)c1
  Potency: inactive
CCCC(C)c1nc(C(N)=O)c2[nH]c(=O)n(-c3ccc(OC)cc3OC)c2n1 (configuration not stated)
  Potency: inconclusive: 20.6 µM [falling, partial curve, poor fit]

Continuation.

| SMILES | Potency |
| --- | --- |
| Cc1cccc(NC(=S)NC(=O)c2cccs2)n1 | inactive |
| O=C(O)c1ccccc1NS(=O)(=O)c1ccc(N/N=C/c2ccc(O)c(O)c2)c([N+](=O)[O-])c1 | inconclusive: 20.6 µM [falling, partial curve] |
| Cc1ccc(C(=O)N2CCN(c3ccc([N+](=O)[O-])c(NCc4ccco4)c3)CC2)cc1 | inconclusive: 18.4 µM [falling, partial curve, poor fit] |
| Cc1noc(C)c1COc1cccc(C(=O)Nc2ccc3c(c2)OCO3)c1 | inactive |
| CCOc1ccc2c(c1)c(=O)c(C(=O)c1ccc3c(c1)OCO3)cn2Cc1cccc(F)c1 | inconclusive: 29.1 µM [falling, single point] |
| COc1cc2c(cc1OC)C(c1ccccc1O)N(C1CC(=O)N(c3ccccc3)C1=O)CC2 (configuration not stated) | inconclusive: 32.6 µM [activator, partial curve, poor fit] |
| c1ccc(Sc2cccc3ccccc23)c(CNC2=NCCN2)c1 | inactive |
| CCC(C)n1c(=N)c(C(=O)NC2CCCC2)cc2c(=O)n3ccccc3nc21 (configuration not stated) | inconclusive: 4.11 µM [activator, partial curve, poor fit] |
| O=S(=O)(c1ccccc1)c1nnn2c1nc(N1CCN(c3ccccc3)CC1)c1cc(Cl)ccc12 | inactive |
| CCCCCCCNC(=O)C1(CC2CC(c3cccc(Br)c3)=NO2)CCN(C(=O)CCCCCBr)CC1 (configuration not stated) | inconclusive: 29.1 µM [falling, single point] |
| COc1ccc2sc(N(Cc3cccnc3)C(=O)c3cccs3)nc2c1 | inconclusive: 7.31 µM [falling, partial curve, poor fit] |
| CCS(=O)(=O)C1=NN2C(=N)/C(=C\c3ccc(SCc4ccco4)o3)C(=O)N=C2S1 | inconclusive: 14.6 µM [falling, partial curve, poor fit] |
| FC(F)(F)c1ccc(N2CCOCC2)c(Nc2nc3ccccc3n3cnnc23)c1 | active: 16.4 µM |
| CC(Nc1nc(-c2ccc(F)cc2)cs1)c1nc2cc(Cl)c(Cl)cc2n1CCCO (configuration not stated) | inconclusive: 18.4 µM [falling, single point] |
| CCCn1cc(S(=O)(=O)c2ccccc2)c(=O)c2cc(F)c(N3CCCCCC3)cc21 | inconclusive: 29.1 µM [falling, single point] |
| Cc1ccc(NC(=O)NC2CC(=O)N(c3ccc4c(c3)OCCO4)C2)cc1 (configuration not stated) | inactive |
| CCCCC(=O)O[C@H]1CC[C@H]2[C@@H]3CCc4cc(O)ccc4[C@H]3CC[C@]12C | inconclusive: 20.6 µM [falling, single point] |
| COc1ccc(-n2cc(CNC3CCOCC3)c(-c3cccc(F)c3)n2)cc1 | inconclusive: 18.4 µM [falling, single point] |
| Cc1onc(-c2ccccc2Cl)c1C(=O)NC(=S)Nc1ccccc1F | inconclusive: 18.4 µM [activator, partial curve] |
| Cc1cc(Nc2ccccc2C(=O)O)n(-c2ccc([N+](=O)[O-])cc2)n1 | inconclusive: 13 µM [falling, partial curve, poor fit] |
